{"sequences": {"note": "Protein sequences, listed by entry. Tags and fused reporters are not part of them.", "UniProt P35374, whole entry": "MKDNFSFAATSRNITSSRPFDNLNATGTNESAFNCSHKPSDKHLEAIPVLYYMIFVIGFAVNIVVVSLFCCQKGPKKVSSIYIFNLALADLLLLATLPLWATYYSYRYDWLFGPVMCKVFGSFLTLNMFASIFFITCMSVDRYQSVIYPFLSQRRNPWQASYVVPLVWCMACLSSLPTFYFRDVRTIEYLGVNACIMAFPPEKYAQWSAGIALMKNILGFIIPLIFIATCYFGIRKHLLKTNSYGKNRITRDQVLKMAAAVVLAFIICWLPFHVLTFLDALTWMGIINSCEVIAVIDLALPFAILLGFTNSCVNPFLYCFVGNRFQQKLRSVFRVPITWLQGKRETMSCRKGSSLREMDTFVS"}, "source": "patent EP4843986A1", "about": "“ANGIOTENSIN II RECEPTOR ANTAGONIST AND USE THEREOF IN TREATMENT OF PERIPHERALLY-INDUCED NEUROPATHIC PAIN” (dated 2026)", "key": {"AT2R": {"molecular_target": "AT2R (Mus musculus, UniProt P35374)", "assay": "AT2R expression in RAW264.7 cells (Western blot and RT-PCR)", "conditions": "AngII alone at 10, 30, 50, 100, and 200 nM, 24 h, vs negative control", "description": "RAW264.7 cells were cultured in DMEM supplemented with 10% FBS at 37°C. Experiments were initiated when the cell confluence reached 70%. After the RAW264.7 cells were subjected to different groups of treatments, the supernatants were collected and centrifuged at 1000 × g and 4°C to remove cell pellets. The obtained supernatants were added to HT22 cells in DMEM supplemented with 10% FBS, followed by co-cultivation at 37°C.\nDetection of AT2R Expression: When the confluence of RAW264.7 cells reached 70%, AngII (10, 30, 50, 100, and 200 nM) was added. The negative control group was treated with an equal volume of saline. After 24 h of treatment, the cells were collected for protein and RNA extraction to assess AT2R expression levels.\nAssay for the Inhibitory Effect of A1 on AT2R: When the confluence of RAW264.7 cells reached 70%, a fixed concentration of AngII and serial concentrations of A1 (10, 30, 50, 100, and 200 nM) were added. The negative control group was treated with an equal volume of saline (without AngII). […]\nWestern Blot (WB): 1) RAW264.7 and HT22 cells subjected to different groups of treatments were lysed with lysis buffer (containing 10 µL PMSF (100×) and 10 µL phosphatase inhibitor per milliliter of lysis buffer) for protein extraction. […] 3) The protein concentration in lysates was quantified using the BCA Protein Assay Kit (Thermo Fisher Scientific). […]"}, "[1]": {"test_system": "mouse peritoneal macrophages", "assay": "AngII-induced reactive oxygen species generation in mouse peritoneal macrophages (DCFH-DA fluorescence)", "conditions": "AngII alone (0.2 µM); vs blank vehicle control group", "text": "Mouse peritoneal macrophages express angiotensin II type 2 receptors (AT2R). As a ligand for AT2R, angiotensin II (AngII) binds to AT2R and induces an increase of reactive oxygen species (ROS) produced in mouse peritoneal macrophages. This assay assesses whether AT2R antagonists inhibit AngII-induced ROS generation in mouse peritoneal macrophages by inhibiting AT2R on mouse peritoneal macrophages.\nSix-week-old male C57BL/6 mice were euthanized. Primary mouse peritoneal macrophages were harvested by intraperitoneal injection of phenol red-free medium. After centrifugation, the macrophages were suspended in RPMI1640 + 5% FBS medium (containing 50 ng/µl GM-CSF) and cultured in a 37°C, 5% CO2 incubator for 2 days. Thereafter, the macrophages were seeded into 96-well plates and allowed to adhere for 24 hours. […] The ROS generation level of macrophages in each group was determined by real-time fluorescence scanning. […]\nData were collected using Excel software. Data were analyzed using Prism 6.01 (GraphPad Software, Inc.) software (one-way ANOVA). The experimental results of each group were statistically analyzed to compare statistical differences among groups, and p < 0.05 was considered statistically significant."}}, "note": "The structures given here were assigned with low confidence; some may be wrong."}
{"smiles": "CC[C@H](C)[C@H](NC(=O)[C@H](Cc1ccc(O)cc1)NC(=O)[C@@H](NC(=O)[C@H](CCCNC(=N)N)NC(=O)[C@@H](N)CC(=O)O)C(C)C)C(=O)N[C@@H](Cc1cnc[nH]1)C(=O)N1CCC[C@H]1C(=O)N[C@@H](Cc1ccccc1)C(=O)O", "values": [{"measurement": "protein and mRNA levels of AT2R", "setting": "AT2R", "result": "elevated"}, {"measurement": "level of reactive oxygen species generated by macrophages", "setting": "[1]", "result": "markedly elevated"}]}
